According to patent US12168773B2, “Engineered phosphoenolpyruvate carboxylase enzymes” (The Regents of the University of California, priority 2019, dated 2024):

B1: AtPPC1 wild type: wild type Arabidopsis thaliana PPC1, C3 PEPC, SEQ ID NO:1 (protein)
chain: MANRKLEKMASIDVHLRQLVPGKVSEDDKLVEYDALLLDRFLDILQDLHGEDLRETVQELYEHSAEYEGKHEPKKLEELGSVLTSLDPGDSIVIAKAFSHMLNLANLAEEVQIAYRRRIKKLKKGDFVDESSATTESDLEETFKKLVGDLNKSPEEIFDALKNQTVDLVLTAHPTQSVRRSLLQKHGRIRDCLAQLYAKDITPDDKQELDEALQREIQAAFRTDEIKRTPPTPQDEMRAGMSYFHETIWKGVPKFLRRVDTALKNIGIEERVPYNAPLIQFSSWMGGDRDGNPRVTPEVTRDVCLLARMMAATMYFNQIEDLMFEMSMWRCNDELRARADEVHANSRKDAAKHYIEFWKSIPTTEPYRVILGDVRDKLYHTRERAHQLLSNGHSDVPVEATFINLEQFLEPLELCYRSLCSCGDRPIADGSLLDFLRQVSTFGLSLVRLDIRQESDRHTDVLDAITTHLDIGSYREWSEERRQEWLLSELSGKRPLFGSDLPKTEEIADVLDTFHVIAELPADSFGAYIISMATAPSDVLAVELLQRECRVKQPLRVVPLFEKLADLEAAPAAVARLFSVDWYKNRINGKQEVMIGYSDSGKDAGRLSAAWQLYKAQEELVKVAKEYGVKLTMFHGRGGTVGRGGGPTHLAILSQPPDTINGSLRVTVQGEVIEQSFGEEHLCFRTLQRFTAATLEHGMRPPISPKPEWRALLDEMAVVATEEYRSVVFQEPRFVEYFRLATPELEYGRMNIGSRPSKRKPSGGIESLRAIPWIFAWTQTRFHLPVWLGFGSAIRHVIEKDVRNLHMLQDMYQHWPFFRVTIDLIEMVFAKGDPGIAALYDKLLVSEELWPFGEKLRANFEETKKLILQTAGHKDLLEGDPYLKQRLRLRDSYITTLNVCQAYTLKRIRDPSYHVTLRPHISKEIAESSKPAKELIELNPTSEYAPGLEDTLILTMKGIAAGLQNTG
B2: AtPPC1 R886G: engineered Arabidopsis thaliana PPC1 enzyme with R886G substitution (protein, UniProt Q9MAH0 1-967, looked up, variant R886G)
Phosphoenolpyruvate …: B1 chain with R886G
B3: AtPPC1 A651V: engineered Arabidopsis thaliana PPC1 with A651V substitution (alr-108), SEQ ID NO:10 (protein)
chain: B1 chain with A651V
B4: AtPPC1 T778I: engineered Arabidopsis thaliana PPC1 with T778I substitution (alr-139), SEQ ID NO:12 (protein)
chain: B1 chain with T778I
B5: AtPPC1 G678S: engineered Arabidopsis thaliana PPC1 with G678S substitution (alr-128), SEQ ID NO:11 (protein)
chain: B1 chain with G678S
B6: ZmPPC1 G678S: engineered Zea mays PPC1 with G678S substitution (G682S in SEQ ID NO:15) (protein)
chain: MASTKAPGPGEKHHSIDAQLRQLVPGKVSEDDKLIEYDALLVDRFLNILQDLHGPSLREFVQECYEVSADYEGKGDTTKLGELGAKLTGLAPADAILVASSILHMLNLANLAEEVQIAHRRRNSKLKKGGFADEGSATTESDIEETLKRLVSEVGKSPEEVFEALKNQTVDLVFTAHPTQSARRSLLQKNARIRNCLTQLNAKDITDDDKQELDEALQREIQAAFRTDEIRRAQPTPQDEMRYGMSYIHETVWKGVPKFLRRVDTALKNIGINERLPYNVSLIRFSSWMGGDRDGNPRVTPEVTRDVCLLARMMAANLYIDQIEELMFELSMWRCNDELRVRAEELHSSSGSKVTKYYIEFWKQIPPNEPYRVILGHVRDKLYNTRERARHLLASGVSEISAESSFTSIEEFLEPLELCYKSLCDCGDKAIADGSLLDLLRQVFTFGLSLVKLDIRQESERHTDVIDAITTHLGIGSYREWPEDKRQEWLLSELRGKRPLLPPDLPQTDEIADVIGAFHVLAELPPDSFGPYIISMATAPSDVLAVELLQRECGVRQPLPVVPLFERLADLQSAPASVERLFSVDWYMDRIKGKQQVMVGYSDSGKDAGRLSAAWQLYRAQEEMAQVAKRYGVKLTLFHGRGGTVGRGGGPTHLAILSQPPDTINGSIRVTVQGEVIEFCFSEEHLCFQTLQRFTAATLEHGMHPPVSPKPEWRKLMDEMAVVATEEYRSVVVKEARFVEYFRSATPETEYGRMNIGSRPAKRRPGGGITTLRAIPWIFSWTQTRFHLPVWLGVGAAFKFAIDKDVRNFQVLKEMYNEWPFFRVTLDLLEMVFAKGDPGIAGLYDELLVAEELKPFGKQLRDKYVETQQLLLQIAGHKDILEGDPFLKQGLVLRNPYITTLNVFQAYTLKRIRDPNFKVTPQPPLSKEFADENKPAGLVKLNPASEYPPGLEDTLILTMKGIAAGMQNTG
B7: ZmPPC1 T7781: engineered Zea mays PPC1 with T778I substitution (T782I in SEQ ID NO:15) (protein)
chain: B6 chain with S682G, T782I
B8: ZmPPC1 wild type: wild type Zea mays PPC1, C4 PEPC, SEQ ID NO:15 (protein)
chain: B6 chain with S682G
B9: ZmPPC1 A651V: engineered Zea mays PPC1 with A651V substitution (A655V in SEQ ID NO:15) (protein)
chain: B6 chain with A655V, S682G

Tested on: Arabidopsis thaliana PPC1 (AtPPC1, C3 PEPC)
Experiment: malate dehydrogenase coupled PEPC enzymatic assay, Arabidopsis C3 PPC1 and engineered variants
Assay type: biochemical
Set-up: key to M (model of inhibition): MX—mixed; CO—competitive; NC—non-competitive
Details: not given
From the text: (§1) For both Arabidopsis C3 PPC1 (AtPPC1) and maize C4 PPC1 (ZmPPC1), the entire coding sequence for each was cloned into pET22b, which contains an amino-terminal 6×-HIS tag for protein purification, and expression was driven by the T7 promoter and lac operon. Relevant mutations were introduced by the Stratagene QuikChange mutagenesis kit using PCR amplification. Both wild type and mutant cDNA constructs were sequenced entirely following cloning into pet22b. Proteins were produced by growing transformed E. coli (BL21 CodonPlus) in autoinduction medium at 18° C. for 16 hours. Proteins were isolated by sonication of bacterial cells followed by passage over a nickel sepharose affinity column, elution with imidazole and separation on a GE SUPERDEX HILOAD 200 PG 16/60 all using an AKTA FPLC.
(§2) Enzyme analysis was conducted in vitro using protein that was generated by expression in E. coli using the pET22b vector. For expression, pET22b constructs were transformed into E. coli BL21-DE3 codon plus RIL cells and grown at 37° C. in autoinduction media until reaching an OD=1 after which these were transferred to 18° C. for 18 hours. Samples were collected and lysed by sonication. Protein was purified by passage through a His-trap nickel affinity column on an Akta FPLC and then eluted with 400 mM imidazole. Partially purified protein was then separated on an FPLC equipped with a HiPrep S200 size exclusion column (16/60) after which collected sample was concentrated by centrifugation to a final concentration of 4 mg/ml in 50% glycerol. Samples were stored at −20° C.
(§3) For enzymatic assays, a malate dehydrogenase coupled reaction was conducted with a range of substrate concentrations (0-7.5 mM phosphoenolpyruvate pyruvate) and a range of concentrations of allosteric inhibitor (0-50 mM malate). Assays were monitored using a Victor2 microplate reader at 25° C. Reactions consisted of […] PPC enzyme variants, 50 mM HEPES pH7.5, 10 mM MgCl2, 10 mM KHCO3 (carbonate substrate), 0.2 mM NADH, and 10 units/ml of malate dehydrogenase. Reaction time was 15 minutes and samples were measured on an ˜40 second interval. For measurement, which monitors loss of NADH, excitation wavelength was 340 nM and emission wavelength was 460 nM. From these assays, the enzyme kinetics of Tables 4-1 and 4-2 were determined for each enzyme variant.

Molecule | model of inhibition by malate
B1 | both a competitive and non-competitive way
B2 | competitive
B3 | competitive
B4 | competitive

Same assay, conditions: inhibition by malate

Molecule | M (model of inhibition)
B1 | MX
B2 | CO
B3 | CO
B4 | CO
B5 | MX

Tested on: Zea mays PPC1 (ZmPPC1, C4 PEPC)
Experiment: malate dehydrogenase coupled PEPC enzymatic assay, maize C4 PPC1 and engineered variants
Assay type: biochemical
Set-up: key: MX—mixed; CO—competitive; NC—non-competitive
Details: inhibition by malate
From the text: as §1, §2
as §3, with “nM.” for “nM. From these assays, the enzyme kinetics of Tables 4-1 and 4-2 were determined for each enzyme variant.”

Molecule | M (model of inhibition)
B6 | CO
B7 | CO
B8 | CO
B9 | CO

Where a chain is given by its changes, count along the chain named. Numbers in names are those of the source.
